PubChem BioAssay AID1224830, NIAID | 2016

- Aim: 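Host factors that control LPS-induced TNF expression in human macrophages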 (primary screen)
- Cells: human THP-1 monocytic leukaemia cells, TNF dual-luciferase reporter clone, PMA-differentiated to macrophage-like cells
- Knock-down reagent: siRNA pool against human genes, 50 nM
- Timing: LPS for 4 h, given about 3 days after siRNA transfection
- Challenge: bacterial LPS (TLR4 ligand), 10 ng/ml
- Detection: 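TNF firefly reporter luminescence divided by renilla, normalised to the plate median, then turned into a robust z-score for each replicate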
- Direction: TNF reporter robust z-score: higher = stronger TNF reporter response to LPS
- Active means: 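a well is active when its z-score exceeds 2.8 or falls below -1.5; control wells carry no call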
This is an unselected part of about 18,000 deposited reagents. Of all reagents, about 2,900 (16%) got an active call. 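Calls are made per well; low scores hint the gene aids the LPS response, high scores that it dampens it.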 Repeated entries: four replicate wells of each siRNA pool.

gene	TNF reporter robust z-score	Call
FAM78A (family with sequence similarity 78 member A)	0.19	inactive
FAM78A (family with sequence similarity 78 member A)	2.84	active
FAM78A (family with sequence similarity 78 member A)	0.31	inactive
FAM78A (family with sequence similarity 78 member A)	0.53	inactive
ALS2CL (ALS2 C-terminal like)	-0.34	inactive
ALS2CL (ALS2 C-terminal like)	-0.19	inactive
ALS2CL (ALS2 C-terminal like)	0.79	inactive
ALS2CL (ALS2 C-terminal like)	0.1	inactive
ZNF460 (zinc finger protein 460)	1.59	inactive
ZNF460 (zinc finger protein 460)	2.58	inactive
ZNF460 (zinc finger protein 460)	2.14	inactive
ZNF460 (zinc finger protein 460)	0.9	inactive
NCLN (nicalin)	-1.01	inactive
NCLN (nicalin)	-0.64	inactive
NCLN (nicalin)	-0.15	inactive
NCLN (nicalin)	-0.05	inactive
EML3 (EMAP like 3)	1.04	inactive
EML3 (EMAP like 3)	0.34	inactive
EML3 (EMAP like 3)	-0.56	inactive
EML3 (EMAP like 3)	-0.55	inactive
BLVRB (biliverdin reductase B)	2.09	inactive
BLVRB (biliverdin reductase B)	2.21	inactive
BLVRB (biliverdin reductase B)	2.18	inactive
BLVRB (biliverdin reductase B)	1.7	inactive
KRTAP10-12 (keratin associated protein 10-12)	-0.97	inactive
KRTAP10-12 (keratin associated protein 10-12)	-0.09	inactive
KRTAP10-12 (keratin associated protein 10-12)	-0.45	inactive
KRTAP10-12 (keratin associated protein 10-12)	-0.21	inactive
HSPA4L (heat shock protein family A (Hsp70) member 4 like)	0.34	inactive
HSPA4L (heat shock protein family A (Hsp70) member 4 like)	1.33	inactive
HSPA4L (heat shock protein family A (Hsp70) member 4 like)	0.7	inactive
HSPA4L (heat shock protein family A (Hsp70) member 4 like)	1.65	inactive
GTF2IRD2 (GTF2I repeat domain containing 2)	0.09	inactive
GTF2IRD2 (GTF2I repeat domain containing 2)	0.42	inactive
GTF2IRD2 (GTF2I repeat domain containing 2)	0.9	inactive
GTF2IRD2 (GTF2I repeat domain containing 2)	1.95	inactive
CNDP1 (carnosine dipeptidase 1)	-0.74	inactive
CNDP1 (carnosine dipeptidase 1)	0.39	inactive
CNDP1 (carnosine dipeptidase 1)	-0.92	inactive
CNDP1 (carnosine dipeptidase 1)	0.03	inactive
EDAR (ectodysplasin A receptor)	-0.58	inactive
EDAR (ectodysplasin A receptor)	-0.47	inactive
EDAR (ectodysplasin A receptor)	-1.2	inactive
EDAR (ectodysplasin A receptor)	-0.8	inactive
DIP2A (DIP2 acetate--CoA ligase A)	0.45	inactive
DIP2A (DIP2 acetate--CoA ligase A)	0.62	inactive
DIP2A (DIP2 acetate--CoA ligase A)	0.57	inactive
DIP2A (DIP2 acetate--CoA ligase A)	0.49	inactive
